This is one part of the list. Shown are side measurements of this screen, not its main read-out; they come without a call. The list favours compounds with an active or inconclusive main result. The note in brackets gives the kind of curve behind each potency; many fits are weak.
Assay: qHTS Assay for Modulators of Lamin A Splicing
Conditions: HeLa LMNA splicing GFP/RFP minigene ratio, 48 h
Procedure, shortened: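 S3 HeLa cells stably expressing lamin A-EGFP splicing minigene plus DsRed2, 600 cells/well, 48 h compound exposure at 37C. Laser-scanning cytometry; analysed as GFP (500-530 nm)/RFP (575-640 nm) total intensity ratio; 0.5% DMSO vehicle.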

[1] = measured here: GFP splicing reporter channel
[2] = measured here: RFP viability control channel

Row | Compound | AC50 [1] | AC50 [2]
1 | Cc1ccc(OCCn2c(CCCO)nc3ccccc32)cc1 | 6.31 µM [rising, single point] | 
2 | COc1ccc(NC(=S)N(Cc2ccc(Cl)cc2)Cc2ccc(C(=O)O)cc2)cc1Cl |  | 8.91 µM [falling, partial curve]
3 | CC(C)c1ccc(S(=O)(=O)c2ccc(NN)cc2)cc1 |  | 31.6 µM [rising, single point]
4 | Cc1ccc(-c2c[n+](CC(=O)N3c4ccccc4Sc4ccccc43)c3n2CCC3)cc1 |  | 15.8 µM [rising, partial curve, poor fit]
5 | O=C(c1ccc(Cn2c(=O)[nH]c3ccccc3c2=O)cc1)N1CCN(c2ccc(Cl)cc2)CC1 | 11.2 µM [rising, partial curve] | 14.1 µM [rising, partial curve]
6 | COc1ccc(C(C(=O)NC(C)(C)C)N(Cc2ccc(C)cc2)C(=O)CCC(=O)Nc2cc(C)on2)cc1 (stereo not given) |  | 7.08 µM [falling, single point]
7 | Cc1ccc(C)c(N2CCN(C(=O)C3CCCN(S(=O)(=O)c4c(C)noc4C)C3)CC2)c1 (stereo not given) | 12.6 µM [rising, single point] | 20 µM [rising, partial curve]
8 | CC(=O)NS(=O)(=O)c1ccc(N=c2ssc3c2-c2cc(C)c(C)cc2NC3(C)C)cc1 |  | 35.5 µM [rising, single point]
9 | Cn1cnc([N+](=O)[O-])c1Oc1cccc2ccccc12 | 14.1 µM [rising, single point] | 12.6 µM [rising, single point]
10 | O=C1c2cc([N+](=O)[O-])cc3cc([N+](=O)[O-])cc(c23)C(=O)N1c1ccccn1 |  | 8.91 µM [rising, partial curve]
11 | CC1CCc2nc3sc4c(c3c(N)c2C1)CCCC4 (stereo not given) | 22.4 µM [rising, single point] | 22.4 µM [rising, single point]
12 | Nc1c(C(=O)O)ccc2c1C(=O)c1ccccc1C2=O |  | 0.1 µM [rising, full curve, poor fit]
13 | O=C(C1CCCCN1S(=O)(=O)c1ccc(F)cc1)N1CCN(c2ccccc2F)CC1 (stereo not given) |  | 11.2 µM [rising, single point]
14 | O=C(N/N=C(/CC(=O)c1cccs1)C(F)(F)F)c1ccc(O)cc1 | 0.112 µM [rising, partial curve, poor fit] | 20 µM [rising, partial curve, poor fit]
15 | COc1ccc(N(CCC(=O)O)S(=O)(=O)c2ccc(C)cc2C)cc1 |  | 10 µM [rising, partial curve]

Pulled by compound from the entries so far:
Row | Compound | AC50 [1] | AC50 [2]
8 | CC(=O)NS(=O)(=O)c1ccc(N=c2ssc3c2-c2cc(C)c(C)cc2NC3(C)C)cc1 |  | 35.5 µM [rising, single point]
5 | O=C(c1ccc(Cn2c(=O)[nH]c3ccccc3c2=O)cc1)N1CCN(c2ccc(Cl)cc2)CC1 | 11.2 µM [rising, partial curve] | 14.1 µM [rising, partial curve]
